Data reported in PMC10148410.
No constants are given. Whether binding was seen depends on the method and setting. Binding seen in cells or lysates may run through a third protein. Some entries that bind do so weakly or less than the wild type.

Target: Yes-associated protein (YAP) (human (endogenous in IUA-EndoSCs)), P46937
Test: co-IP; lysates of IUA-EndoSCs (control, or treated 24 h with EXO or EXO^PDGFBB); immunoprecipitated with YAP antibody at 4 °C overnight, protein A-sepharose beads 4 h; eluate analysed by western blot
Conditions: remark: other sources report otherwise

binding: binds
B1: SMAD3, P84022 1-425 (protein)
chain: MSSILPFTPPIVKRLLGWKKGEQNGQEEKWCEKAVKSLVKKLKKTGQLDELEKAITTQNVNTKCITIPRSLDGRLQVSHRKGLPHVIYCRLWRWPDLHSHHELRAMELCEFAFNMKKDEVCVNPYHYQRVETPVLPPVLVPRHTEIPAEFPPLDDYSHSIPENTNFPAGIEPQSNIPETPPPGYLSEDGETSDHQMNHSMDAGSPNLSPNPMSPAHNNLDLQPVTYCEPAFWCSISYYELNQRVGETFHASQPSMTVDGFTDPSNSERFCLGLLSNVNRNAAVELTRRHIGRGVRLYYIGGEVFAECLSDSAIFVQSPNCNQRYGWHPATVCKIPPGCNLKIFNNQEFAALLAQSVNQGFEAVYQLTRMCTIRMSFVKGWGAEYRRQTVTSTPCWIELHLNGPLQWLDKVLTQMGSPSIRCSSVS
